{"source": "patent US12466816B2", "about": "“Fused cyclic compound capable of degrading protein and use thereof” (Medshine Discovery Inc., priority 2019, dated 2025)", "system": "U87-MG cells", "experiment": "Drug synergism experiment with DNA damaging agents (CCK-8)", "type": "cell-based", "settings": "10 μM WX106, agent 0.1, 1, 10 μM, 72 hours", "protocol": "U87-MG cells were treated with WX106 and DNA damaging agents, temozolomide, cisplatin, and gemcitabine for 72 hours, respectively, and the proliferation level of cells was detected by CCK-8. Among them, the WX106 concentration was 10 μM, and the DNA damaging agent concentrations were 0.1 μM, 1 μM and 10 μM, respectively.", "note": "For at least one compound, name, drawing or mass did not settle the structure.", "data": [{"compound": "Cn1nnc2c(C(N)=O)ncn2c1=O", "note": "[Temozolomide, temozolomide]", "values": [{"measurement": "proliferation of U87-MG cells, DNA damaging agent combined with WX106", "result": "significantly inhibits the proliferation of U87-MG cells"}]}]}
